Measurements from article PMC5105952.
Results are given in words; binding and its absence hold for the method and conditions named. In cells and extracts the contact can be indirect. Here binding means that the protein was enriched with, or labelled near, the bait; the list need not be complete.

Sequences of proteins named here, by UniProt entry; tags and fusion partners are left off.
UniProt E1JH25: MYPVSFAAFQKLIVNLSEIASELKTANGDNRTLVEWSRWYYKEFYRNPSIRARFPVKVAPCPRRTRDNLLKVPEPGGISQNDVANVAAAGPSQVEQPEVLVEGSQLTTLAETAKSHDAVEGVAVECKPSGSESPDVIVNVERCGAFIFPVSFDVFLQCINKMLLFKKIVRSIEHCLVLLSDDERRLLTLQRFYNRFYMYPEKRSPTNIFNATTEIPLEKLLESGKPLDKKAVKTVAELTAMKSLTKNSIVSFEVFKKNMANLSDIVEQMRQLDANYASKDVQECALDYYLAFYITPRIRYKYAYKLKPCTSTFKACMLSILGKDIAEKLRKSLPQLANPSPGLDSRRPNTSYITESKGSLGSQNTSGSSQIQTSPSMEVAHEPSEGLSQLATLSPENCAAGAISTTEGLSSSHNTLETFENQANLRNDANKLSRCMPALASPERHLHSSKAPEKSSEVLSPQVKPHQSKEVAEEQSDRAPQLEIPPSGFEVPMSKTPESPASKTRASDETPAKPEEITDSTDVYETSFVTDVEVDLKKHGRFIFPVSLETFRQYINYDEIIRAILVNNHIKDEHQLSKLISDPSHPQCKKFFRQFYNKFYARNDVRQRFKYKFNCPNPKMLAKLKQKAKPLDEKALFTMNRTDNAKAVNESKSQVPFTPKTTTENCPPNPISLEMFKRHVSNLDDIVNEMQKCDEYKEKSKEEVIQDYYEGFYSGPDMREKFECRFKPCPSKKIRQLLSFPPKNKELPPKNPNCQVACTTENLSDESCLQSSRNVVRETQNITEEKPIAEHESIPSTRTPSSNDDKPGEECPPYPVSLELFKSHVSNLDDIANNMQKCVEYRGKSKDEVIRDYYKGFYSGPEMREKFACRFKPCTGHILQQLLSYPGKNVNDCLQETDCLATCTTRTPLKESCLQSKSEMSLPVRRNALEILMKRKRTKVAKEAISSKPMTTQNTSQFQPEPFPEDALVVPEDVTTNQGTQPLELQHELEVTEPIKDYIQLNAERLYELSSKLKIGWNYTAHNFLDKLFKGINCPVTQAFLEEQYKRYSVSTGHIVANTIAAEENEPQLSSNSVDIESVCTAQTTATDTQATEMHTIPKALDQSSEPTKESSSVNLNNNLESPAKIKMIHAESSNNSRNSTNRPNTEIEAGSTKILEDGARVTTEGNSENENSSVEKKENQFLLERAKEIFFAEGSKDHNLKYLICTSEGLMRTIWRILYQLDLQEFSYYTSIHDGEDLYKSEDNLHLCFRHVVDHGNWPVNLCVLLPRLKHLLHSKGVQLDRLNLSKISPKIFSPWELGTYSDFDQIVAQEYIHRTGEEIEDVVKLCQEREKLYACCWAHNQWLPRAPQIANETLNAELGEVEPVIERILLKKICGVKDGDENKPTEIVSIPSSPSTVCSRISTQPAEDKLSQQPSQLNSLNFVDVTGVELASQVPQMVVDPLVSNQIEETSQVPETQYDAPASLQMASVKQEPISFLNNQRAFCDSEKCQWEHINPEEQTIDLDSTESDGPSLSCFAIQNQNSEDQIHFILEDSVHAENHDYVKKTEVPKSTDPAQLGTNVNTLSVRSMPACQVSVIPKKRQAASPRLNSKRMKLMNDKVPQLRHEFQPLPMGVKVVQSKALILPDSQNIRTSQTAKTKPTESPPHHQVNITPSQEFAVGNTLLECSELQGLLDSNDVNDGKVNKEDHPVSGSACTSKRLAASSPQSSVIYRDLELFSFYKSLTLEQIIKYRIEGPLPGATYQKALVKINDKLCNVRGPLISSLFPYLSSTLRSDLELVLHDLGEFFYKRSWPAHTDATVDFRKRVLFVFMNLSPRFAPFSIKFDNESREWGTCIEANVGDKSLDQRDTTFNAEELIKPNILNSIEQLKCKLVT

Molecular target: T1, HOAP (Drosophila melanogaster) (UniProt Q95RV2)
T1 sequence: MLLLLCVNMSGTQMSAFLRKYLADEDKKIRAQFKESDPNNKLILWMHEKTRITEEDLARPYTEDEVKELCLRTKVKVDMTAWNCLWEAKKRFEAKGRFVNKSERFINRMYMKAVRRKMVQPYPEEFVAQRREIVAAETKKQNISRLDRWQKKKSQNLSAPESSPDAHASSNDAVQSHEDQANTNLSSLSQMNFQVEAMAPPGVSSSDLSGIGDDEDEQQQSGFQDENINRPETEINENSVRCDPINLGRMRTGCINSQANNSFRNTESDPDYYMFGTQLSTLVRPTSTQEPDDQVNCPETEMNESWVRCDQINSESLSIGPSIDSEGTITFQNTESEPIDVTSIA
Assay: affinity purification with mass spectrometry; biochemical purification of HOAP-interacting proteins (the same purification as in ref. 6); peptides identified

Tea (peptides encoded by the CG30007 locus, found in the HOAP purification) (from UniProt E1JH25 1-1876)
binding: binds
